Results are given in words; binding and its absence hold for the method and conditions named. A result given as binding can be weak or reduced; the word gives no strength.
Experiments:
[1] = target: recombinant soluble CL-12 (UniProt Q5KU26); assay: flow cytometry on cells; A. fumigatus conidia pre-incubated with sCL-12 (5 µg/ml), then properdin-depleted serum (fP-Dpl, 10%) treated with Cp40 (6 µM) plus purified serum properdin (10 µg/ml) or properdin variants, EGTA-Mg2+ buffer; variants read as % properdin/CL-12-double positive events; only the target purified
[2] = target: recombinant soluble CL-12 (UniProt Q5KU26); assay: flow cytometry on cells; A. niger conidia with sCL-12, then fP-Dpl restored with serum properdin or properdin variants (10 µg/ml; properdin tetramer 20 µg/ml in Figure 5E), as described for A. fumigatus; only the target purified
[3] = target: recombinant soluble CL-12 (UniProt Q5KU26); assay: flow cytometry on cells; A. fumigatus conidia pre-incubated with sCL-12 (5 µg/ml), then NHS (20%) preincubated with the C3 inhibitor Cp40 (6 µM), TBS/EGTA-Mg2+; properdin detected with sheep anti-human properdin pAb; only the target purified
[4] = target: recombinant soluble CL-12 (UniProt Q5KU26); assay: flow cytometry on cells; A. fumigatus conidia pre-incubated with sCL-12 (5 µg/ml), then C3-depleted serum (C3-Dpl, 11.1 ~ 100%); % positive events with respect to C3-Dpl alone; only the target purified
[5] = target: recombinant soluble CL-12 (UniProt Q5KU26); assay: flow cytometry on cells; A. niger conidia with sCL-12, then NHS in the presence of Cp40, as described for A. fumigatus; only the target purified
[6] = target: recombinant soluble CL-12 (UniProt Q5KU26); assay: flow cytometry on cells; A. niger conidia with sCL-12, then C3-depleted serum (C3-Dpl), as described for A. fumigatus; only the target purified
[7] = target: recombinant soluble CL-12 (UniProt Q5KU26); assay: flow cytometry on cells; A. fumigatus conidia pre-incubated with sCL-12 (5 µg/ml), then NHS (20%) in TBS/EGTA-Mg2+ (10 mM Tris/150 mM NaCl/10 mM EGTA/5 mM Mg2+, pH 7.4), without Cp40; properdin detected with sheep anti-human properdin pAb; only the target purified

The chains behind the UniProt entries cited, without tags or fusion partners. Where a name states a change or a piece, a line headed by the entry shows the natural chain unless it says otherwise. Residues count along the entry.
UniProt Q5KU26: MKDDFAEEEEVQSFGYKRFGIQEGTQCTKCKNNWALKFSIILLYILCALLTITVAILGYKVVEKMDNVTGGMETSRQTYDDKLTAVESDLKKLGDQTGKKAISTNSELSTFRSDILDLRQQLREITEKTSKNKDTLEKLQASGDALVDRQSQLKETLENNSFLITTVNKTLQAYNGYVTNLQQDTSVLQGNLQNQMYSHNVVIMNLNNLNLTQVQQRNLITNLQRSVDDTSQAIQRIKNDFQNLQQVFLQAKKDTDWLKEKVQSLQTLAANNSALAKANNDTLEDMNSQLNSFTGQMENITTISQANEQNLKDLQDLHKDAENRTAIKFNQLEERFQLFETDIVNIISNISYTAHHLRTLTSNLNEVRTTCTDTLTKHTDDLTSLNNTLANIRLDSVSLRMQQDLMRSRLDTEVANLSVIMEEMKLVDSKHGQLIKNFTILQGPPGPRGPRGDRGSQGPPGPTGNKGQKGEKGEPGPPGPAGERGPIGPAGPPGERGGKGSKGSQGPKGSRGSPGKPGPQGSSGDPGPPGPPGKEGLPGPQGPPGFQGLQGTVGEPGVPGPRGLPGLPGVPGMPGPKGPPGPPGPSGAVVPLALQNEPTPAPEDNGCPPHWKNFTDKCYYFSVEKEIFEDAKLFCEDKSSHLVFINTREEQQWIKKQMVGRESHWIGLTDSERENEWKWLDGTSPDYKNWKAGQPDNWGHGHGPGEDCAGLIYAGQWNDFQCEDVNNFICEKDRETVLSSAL
UniProt P27918, residues 28-469: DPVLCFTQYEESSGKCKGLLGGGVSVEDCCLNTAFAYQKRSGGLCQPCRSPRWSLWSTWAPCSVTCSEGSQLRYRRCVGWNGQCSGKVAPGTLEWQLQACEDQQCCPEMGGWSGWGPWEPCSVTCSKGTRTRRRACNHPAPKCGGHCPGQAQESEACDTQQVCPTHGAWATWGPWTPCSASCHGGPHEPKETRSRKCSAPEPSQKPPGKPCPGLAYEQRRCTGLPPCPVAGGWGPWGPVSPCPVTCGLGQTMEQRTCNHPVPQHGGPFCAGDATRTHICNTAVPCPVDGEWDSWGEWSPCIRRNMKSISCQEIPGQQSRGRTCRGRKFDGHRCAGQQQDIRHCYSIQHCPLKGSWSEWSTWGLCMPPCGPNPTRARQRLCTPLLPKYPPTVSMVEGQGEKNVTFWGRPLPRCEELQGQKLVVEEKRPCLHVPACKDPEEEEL

| binding [1] | binding [2] | binding [3] | binding [4] | binding [5] | binding [6] | binding [7] | Substance |
| --- | --- | --- | --- | --- | --- | --- | --- |
| no binding | no binding (tested: 10 µg/ml) | – | – | – | – | – | recombinant wild type properdin, dimer and trimer fraction (from UniProt P27918 28-469) |
| binds | binds | – | – | – | – | – | recombinant wild type properdin, tetramer fraction (from UniProt P27918 28-469) |
| – | binds | – | – | – | – | – | purified serum properdin (from UniProt P27918 28-469) |
| – | – | binds | binds | binds | binds | binds | properdin in normal human serum (from UniProt P27918 28-469) |

Source: paper PMC7511233
